Results on 30 compounds are retold here after PubChem BioAssay AID623959 (National Center for Advancing Translational Sciences (NCATS), 2012).

Chains of the proteins cited; added tags and fusions are not shown.
UniProt Q8NER1, whole entry, looked up: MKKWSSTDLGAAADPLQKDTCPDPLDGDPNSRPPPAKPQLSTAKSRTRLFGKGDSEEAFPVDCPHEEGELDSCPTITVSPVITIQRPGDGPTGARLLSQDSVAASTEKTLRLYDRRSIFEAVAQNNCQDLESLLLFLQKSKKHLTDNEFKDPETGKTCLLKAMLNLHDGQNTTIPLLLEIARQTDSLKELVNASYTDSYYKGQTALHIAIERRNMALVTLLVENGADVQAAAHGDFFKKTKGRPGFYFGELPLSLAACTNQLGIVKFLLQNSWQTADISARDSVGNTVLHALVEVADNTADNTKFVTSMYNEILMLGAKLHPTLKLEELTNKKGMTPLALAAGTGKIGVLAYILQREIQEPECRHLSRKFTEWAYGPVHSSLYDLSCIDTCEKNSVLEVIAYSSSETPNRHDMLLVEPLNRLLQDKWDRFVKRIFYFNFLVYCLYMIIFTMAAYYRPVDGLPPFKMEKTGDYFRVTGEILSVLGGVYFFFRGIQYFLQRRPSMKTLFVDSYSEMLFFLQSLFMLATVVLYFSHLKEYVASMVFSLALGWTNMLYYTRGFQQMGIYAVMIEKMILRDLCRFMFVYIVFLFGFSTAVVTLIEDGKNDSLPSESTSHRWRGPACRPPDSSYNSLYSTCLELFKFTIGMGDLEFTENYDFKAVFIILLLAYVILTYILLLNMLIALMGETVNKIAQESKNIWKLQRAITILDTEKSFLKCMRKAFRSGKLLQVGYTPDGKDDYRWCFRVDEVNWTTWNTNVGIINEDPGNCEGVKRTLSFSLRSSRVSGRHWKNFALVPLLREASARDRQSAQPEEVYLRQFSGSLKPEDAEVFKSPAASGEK

Each structure is given as a SMILES string. Screen size: about 1,400 compounds; fewer than 10 were called active. About 8% were inconclusive and are not listed. The call rests on the fitted dose curve; in most records, active means well fitted curve in the direction sought with a large enough effect; inconclusive means small, poorly fitted or top-dose-only effect, or another doubt; inactive means no such curve, though single readings can be large or run the other way. Some of the results follow.

In the assay the target is Transient receptor potential cation channel subfamily V member 1 (Homo sapiens) (UniProt Q8NER1). The assay can be described thus: qHTS Assay for Compounds that Act as Potentiators of the Vanilloid Receptor 1: Hit Validation. Further: % of control where 0% means no effect. Particulars: TRPV1-expressing cells, Fluo-8 calcium influx, capsaicin EC20; at 42.1 µM (top of the series). The source says: The transient receptor potential ion channel, family V, number 1, (TRPV1) is one of the most important molecular transducers of painful stimuli and a potential target for analgesic drug development. Although recent clinical trials with orthosteric antagonists have not produced a successful drug because of a hyperthermia side effect and their tendency to block thermal noxious pain, this ion channel is undeniably well placed in the pain pathway, and the idea of blocking pain signals before they enter the CNS is an excellent concept and of proven efficacy when TRPV1 agonists are used. We propose a new approach involving allosteric modulation to impose an activity-dependent constraint within the context of inflammation and tissue damage that would alter the responsiveness of the channel in a way that an orthosteric vanilloid antagonist cannot achieve. We believe that the allosteric modulator approach has not been explored for this target. The main goal of this proposal is to identify additional, new, potent allosteric modulators of TRPV1 that can be used to investigate TRPV1 function. Our recent report provides evidence of proof of concept, but the compounds are just at the edge of utility in terms of potency. […] The question of whether they can be used as analgesic agents is complex, but if suitable compounds are identified then testing for analgesic properties will be conducted. Compounds identified as agonists were re-tested in the primary screen for hit validation. NIH Chemical Genomics Center [NCGC] NIH Molecular Libraries Probe Centers Network [MLPCN] MLPCN Grant: MH089480 Assay Submitter (PI): Michael Iadarola, National Institute of Dental and Cranofacial Research
Upon TRPV1 activation in TRPV1 cells, the channel opens and extracellular cations flow through the channel into the cytosol. A calcium binding dye (Fluo-8) becomes fluorescent when bound to calcium. This dye is pre-loaded into cells and is used as a marker for calcium influx. The amount of accumulated calcium is precisely quantified using the FDSS kinetic reader and the calcium dye. For the HTS assay, freshly prepared cells are plated at a density of 2000/well in 3 ul medium in 1536-well plates and cultured overnight at 35.5C. Cells will be loaded with 1 ul of the homogeneous calcium dye (ABD Bioquest) at room temperature for 40 to 90 minutes. Plates will be loaded into the FDSS kinetic reader and a 1 sec / cycle for 10 second baseline signal will be measured. Compound library will then be added with a pintool at 23 nl and measured kinetically for 3 minutes. This portion of the read is considered the agonist portion of the screen. Following the 3 minutes of incubation, an on board pipettor will deliver 1 ul of capsaicin for a final concentration equal to the EC20. Signal will be measured kinetically for an additional 2 minutes. This portion of the read is considered the allosteric enhancer portion of the screen. The FDSS reader has a standard filter set capable of measuring calcium bound Fluo-8 (ex=480 and em=520 nm).
For orientation: Quantitative high-throughput screening tests each substance at several concentrations.
For the compound `CN1CCN(c2ccc(N)cc2Cl)CC1`, the activity change, positive = potentiation is inactive: -0.625%.
The result for `COc1ccc(/C=N\N=C(N)N)cc1` reads inactive: -4.03%; that for `Cc1ncoc1C(=O)NCCC(c1ccccc1)c1ccccc1`, inactive: -38.2%.
On to `NC(=O)Cn1cc(C(=O)c2ccccc2)c2ccccc21`, for which the activity change, positive = potentiation is inactive: -8.42%.
As for `CCN1CC2C3CCC(C)(O3)C2C1` (stereo not given), the activity change, positive = potentiation is inactive: 1.5%.
In the case of `O=C(O)CCn1cc(C=C2C(=O)NC(=O)NC2=O)c(-c2cc3ccccc3oc2=O)n1`, the activity change, positive = potentiation was inactive: -2.95%.
The result for `CCCCn1c(N)c(C(=O)OCCOC)c2nc3ccccc3nc21` reads inactive: -25%; that for `Cc1ccc(Cn2nc(C(=O)Nc3ccc(Br)cc3)cc2C)cc1`, inactive: -38.4%.
The result for `Cc1cc(C(=O)CS(=O)(=O)c2ccc(F)cc2)cc(C)c1OC(=O)N(C)C` reads inactive: -10.7%.
In the case of `O=P(Oc1ccccc1)(Oc1ccccc1)C(O)c1ccc(Cl)cc1` (stereo not given), the activity change, positive = potentiation was inactive: -6.55%.
As to `CN(C)C1C(=O)C(C(N)=O)=C(O)C2(O)C(=O)C3=C(O)c4c(O)cccc4C(C)(O)C3C(O)C12` (stereo not given), the activity change, positive = potentiation was inactive: 5.12%.
With `N#Cc1ccc(Cn2cc(C(=O)c3ccco3)c3ccccc32)cc1`, the activity change, positive = potentiation is inactive: -6.34%.
The result for `O=C1C2CCN(CC2)[C@@H]1Cc1ccc2ccccc2c1O` reads inactive: 8.84%; that for `O=C(CNC(=O)c1cccc(Cl)c1)Nc1ccc(Br)cc1C(=O)c1ccccc1`, inactive: -10.5%; that for `C[n+]1c(-c2ccccc2)cc(CCCCc2cc(-c3ccccc3)[n+](C)c(-c3ccccc3)c2)cc1-c1ccccc1`, inactive: 1.26%.
As for `COc1ccc(Cl)cc1N=Cc1c(O)n(C)c(=O)n(C)c1=O`, the activity change, positive = potentiation is inactive: -4.58%.
The result for `O=C(Cn1nc(-c2ccc(Cl)cc2)ccc1=O)N1CCC2(CC1)OCCO2` reads inactive: -9.23%.
The figure for `COC(=O)Cn1cc(C=C2C(=O)N(C)C(=O)N(C)C2=O)c2ccccc21` is inactive: -0.412%.
As for `Cc1c(C(c2ccc(Cl)cc2Cl)c2c(O)c3ccccc3oc2=O)c(=O)n(-c2ccccc2)n1C` (stereo not given), the activity change, positive = potentiation is inactive: -10.2%.
Take `O=[N+]([O-])NC1=NCCN1Cc1ccc(Cl)nc1`: the activity change, positive = potentiation is inactive: -7.67%.
On to `C/C=C(\C)C(=O)N[C@@H](c1ccccc1)[C@@H](O)C(=O)O[C@H]1C[C@@]2(O)[C@@H](OC(=O)c3ccccc3)C3[C@](C)(C(=O)[C@H](O)C(=C1C)C2(C)C)[C@@H](O)C[C@H]1OC[C@@]31OC(C)=O` (stereo not given in full), for which the activity change, positive = potentiation was inactive: -5.57%.
On to `CCCCCCCCC(=O)NCc1ccc(O)c(OC)c1`, for which the activity change, positive = potentiation is inactive: -38.8%.
In the case of `COc1cc(CNC(=O)CCCC/C=C/C(C)C)ccc1O`, the activity change, positive = potentiation was inactive: -38.4%.
Turning to `O=S(=O)(c1ccc(F)cc1)N1CN2CCN(C2)C1`, the activity change, positive = potentiation was inactive: -7.98%.
`O=[P+](Cc1ccccc1)Cc1ccccc1`: the activity change, positive = potentiation was inactive: -8.17%.
The result for `CCc1ccc(NP(=O)(Oc2ccccc2F)Oc2ccccc2F)cc1` reads inactive: -3.25%; that for `N/C(=N\[N+](=O)[O-])N1CCN(C(=O)c2ccccc2)CC1`, inactive: -3.88%.
The figure for `CCCCCn1c(=O)c(C(=O)NCc2ccccc2)c(O)c2ccccc21` is inactive: -4.39%; for `COc1ccc(-n2c(/C=C3\C(=O)Nc4ccccc43)nc3ccccc3c2=O)cc1` it is inactive: 11.8%.
On to `CCn1cc(C(=O)NCc2ccccc2)c2ccccc21`, for which the activity change, positive = potentiation is inactive: 2.86%.
